Results as given in PubChem BioAssay AID1347431 (National Center for Advancing Translational Sciences (NCATS), 2020).
Out of some 1,200 compounds screened, fewer than 10 were called active. Calls come from the whole dose curve; as a rule, active = well fitted curve in the direction sought with a large enough effect; inconclusive = small, poorly fitted or top-dose-only effect, or another doubt; inactive = no such curve, though single readings can be large or run the other way. The list shows a part of the results.

experiment: Confirmatory qHTS assay for inhibitors of Activation Induced Cytidine Deaminase (AID): UDG signals; settings: UDG coupled enzyme activity counter-screen; at 115 µM (top of the series) unless noted; note: 0% is about no effect
Method in brief: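 UDG readout, a counterscreen: AID (1 uM, 4/3x) plus UDG (2 U/mL, 4/3x) preincubated 10 min with compound (7.32 nM - 114 uM final), then 4 h with DJC20/DJC23 substrates at room temperature; NaOH added, fluorescence read at 560/665 nm.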

Compound	activity change, negative = inhibition
Cc1ccc(NC(=O)C2CCCN(S(=O)(=O)c3cccc4cccnc34)C2)cc1Cl (configuration not stated)	inactive: -24.8%
O=C(c1ccc2c(c1)OCO2)c1cn(Cc2ccc(F)cc2)c2ccccc2c1=O	inactive: -2.46%
Cc1ccc(-c2noc(CN(C(=O)COc3cc(C)cc(C)c3C)C(C)C)n2)cc1	inactive: 0.248%
O=C(C1CCC(Cn2c(=O)c3sccc3n(Cc3ccccc3F)c2=O)CC1)N1CCCCC1 (configuration not stated)	inactive: -5.65%
CCOc1ccccc1CNC(=O)c1cccn1-c1nnc(N2CCCCC2)s1	inactive: -6.77%
C=Cc1ccc(CSc2nc(-c3ccc(C)cc3)nc3c2Cc2c(CO)cnc(C)c2O3)cc1	inactive: -10.6%
COc1cc2ccccc2cc1C(=O)N1CCN(c2nc3ccc(F)cc3s2)CC1	inactive: -5.87%
Cc1ccc(CN(Cc2ccco2)C(=O)COc2ccc(Cl)cc2)o1	inactive: -5.99%
O=C(c1ccc2c(Cl)c3c(nc2c1)CCCC3)N1CCN(c2ccccc2F)CC1	inactive: -10.6%
Cc1ccc(Cn2cc(S(=O)(=O)c3ccc(C)cc3)c(=O)c3cc(F)c(N4CCCC4)cc32)cc1	inactive: -6.85%
COc1ccccc1N1CCN(C(=O)c2cc3ccc4ccc(C)[nH]c4c3n2)CC1	inactive: -15%
CC(=O)N1CCCc2cc(S(=O)(=O)N3CCCC(C(=O)N4CCN(c5cc(C)ccc5C)CC4)C3)ccc21 (configuration not stated)	inactive: -11.8%
CCOc1ccc(NC(=O)CCS(=O)(=O)c2ccc(Br)cc2)cc1	inactive: 0.321%
CCOc1ccc(Nc2c(S(=O)(=O)c3ccccc3)cnc3ccccc23)cc1	inactive: -4.23%
COc1ccc(-c2nc(Cn3c(SCc4ccc(F)cc4)nc4cccnc43)c(C)o2)cc1	inactive: -5.08%
Cc1ccc2onc(CC(=O)N3CCN(c4cccc(C)c4C)CC3)c2c1	inactive: -6.56%
COc1ccc(C(=O)Oc2ccc(C(c3c(C)[nH][nH]c3=O)c3c(C)[nH][nH]c3=O)cc2OC)cc1	inactive: -3.7%
CCc1c(C)nc2nc(-c3ccccc3)nn2c1NCc1ccc(C)cc1	inactive: -0.843%
CCN(CC)CCNC(=O)c1ccc2c(=O)n3nc(Nc4ccccc4)sc3nc2c1	inactive: 1.04%
CCOc1ccc(CCNC(=O)c2ccc(Cn3c(=O)c4cccn4c4cccnc43)cc2)cc1	inactive: -15.4%
Clc1ccc(-c2noc3ncnc(NCCCN4CCN(c5ccccc5)CC4)c23)cc1	inactive: 1.77%
CCc1ccccc1Nc1nn2c(=O)c3ccc(C(=O)NCc4cccs4)cc3nc2s1	inactive: -7.73%
CCOc1ccc(-c2nc(CSCC(=O)N3CCN(c4cccc(C(F)(F)F)c4)CC3)c(C)o2)cc1	inactive: -17.8%
Clc1cccc(N2CCN(c3ncnc4c3nc3n4CCCCC3)CC2)c1	inactive: -13.1%
CCc1ccc(NC(=O)c2cc(C(C)=O)n3ccccc23)cc1	inactive: -4.94%
O=C1CCSC2(C(=O)N(Cc3ccc(F)cc3)c3ccccc32)N1c1cccc(F)c1 (configuration not stated)	inactive: -6.62%

Four entries picked at random from those above:
Compound	activity change, negative = inhibition
CCOc1ccccc1CNC(=O)c1cccn1-c1nnc(N2CCCCC2)s1	inactive: -6.77%
COc1cc2ccccc2cc1C(=O)N1CCN(c2nc3ccc(F)cc3s2)CC1	inactive: -5.87%
CCN(CC)CCNC(=O)c1ccc2c(=O)n3nc(Nc4ccccc4)sc3nc2c1	inactive: 1.04%
Cc1ccc2onc(CC(=O)N3CCN(c4cccc(C)c4C)CC3)c2c1	inactive: -6.56%

(next part)

Compound	activity change, negative = inhibition
Oc1ccc(NCc2ccc(OCc3ccccc3)cc2)cc1	inactive: -8.5%
Cc1cc(C)c(NC(=O)Cn2c(=O)n(Cc3ccc(C(=O)NCc4ccc5c(c4)OCO5)cc3)c(=O)c3ccccc32)c(C)c1	inactive: 4.18%
Cc1ccc2c(c1)-c1c(c(C(=O)N3CCN(c4cc(C)ccc4C)CC3)nn1C)CS2	inactive: -6.29%
Cc1ccc(NC(=O)c2oc3c(c2C)-c2[nH]ncc2CC3)c(Cl)c1	inactive: -1.6%
Cn1cc(S(=O)(=O)N2CCCCCC2)cc1C(=O)N1CCN(c2cccc(C(F)(F)F)c2)CC1	inactive: -3.09%
Cc1cccc(C(=O)Nc2nc3nc(-c4ccccc4)cc(=O)n3[nH]2)c1	inactive: 2.7%
CCN(CC)CCNC(=O)c1ccc2c(=O)n3nc(Nc4cccc(Cl)c4C)sc3nc2c1	inactive: -22.4%
CCn1cc(C(=O)NCCCOC(C)C)c(=O)c2cc(S(=O)(=O)N(C)C3CCCCC3)ccc21	inactive: -12%
COc1ccc(OC)c(/C=C(\C#N)c2nc3ccccc3c(=O)[nH]2)c1	inactive: -0.698%
COc1ccccc1N1CCN(CCCNC(=O)c2cnn(-c3ccc(C)c(C)c3)c2C2CCN(C(=O)OC(C)(C)C)CC2)CC1	inactive: -10.4%
Cc1oc(-c2cccc(Cl)c2)nc1CSCC(=O)NCc1ccccc1Cl	inactive: -2.08%
CCCCN(C)CC(O)Cn1cc(/C=C/C(=O)c2ccc(C)cc2)c2ccccc21 (configuration not stated)	inactive: -8.41%
COc1ccc(N2CCN(C(=O)c3sc4nc5n(c(=O)c4c3C)CCC5)CC2)cc1	inactive: -0.6%
O=C(NCCn1cc(SCc2ccccc2F)c2ccccc21)c1cccs1	inactive: -4.8%
CCOC(=O)C1=C(CN2CCN(c3ccc(C)cc3C)CC2)NC(=O)NC1c1ccc(OC)cc1 (configuration not stated)	inactive: -11.4%
Cc1ccc(-n2c(=O)c3oc4ccccc4c3n(Cc3cccc(F)c3)c2=O)cc1C	inactive: 1.83%
COc1ccc(-c2cc(C(F)(F)F)nc(SCC(=O)N(C)Cc3ccccc3)n2)cc1	inactive: -8.02%
Cc1cccc(CSc2ccc3nnc(CCNS(=O)(=O)c4ccccc4)n3n2)c1	inactive: -0.143%
Cc1nn(C(=O)c2ccccc2)c(C)c1Sc1ccc(Cl)cc1	inactive: -0.373%
Cc1ccc(C2=NN(CC(=O)NCCCN(CC(C)C)CC(C)C)C(=O)CC2)cc1	inactive: -15.8%
CCCN(CCC)CCNC(=O)c1cc2c(-c3ccc(Cl)cc3)nn(C)c2s1	inactive: -0.229%
CSc1cccc(NC(=O)CC(c2cccs2)N2Cc3ccccc3C2=O)c1 (configuration not stated)	inactive: -5.93%
CCCCN(CCCC)CCNC(=O)c1cn(CC)c2ccc(S(=O)(=O)N3CCc4ccccc4C3)cc2c1=O	inactive: -19.4%
Cc1ccc(C)c(CSc2ccc3nnc(CCNS(=O)(=O)c4ccccc4)n3n2)c1	inactive: 3.13%
CC1CCCN(C(=O)c2cc3c(Cl)nc4ccccc4c3s2)C1 (configuration not stated)	inactive: -4.27%
Cc1cccc(C)c1-n1ncc(C(=O)N2CCN(c3ccccc3)CC2)c1C1CCN(C(=O)OC(C)(C)C)CC1	inactive: -4.12%
